Common to all, as to assay: log2 fold change, soluble protein after heating vs DMSO (PISA); higher = thermal stabilisation; K562 cells, 10 uM, 30 min; active = over 0.2 and 3.5 SD of the protein, either way, in both replicates (recomputed)
Compound in test [1]: CS(=O)(=O)c1ccc(-c2cnc(N)c(C(=O)Nc3ccccc3)n2)cc1
In outline: (§1)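 K562 cells at 2×10^6 cells/mL were treated for 30 min with 10 μM compound, and aliquots were heated for 3 min over 48°C-58°C before pooling. Extraction used PBS with 0.5% NP-40 at 4°C, and soluble protein was the supernatant after 21,000xg for 90 min, measured by TMTpro 16plex LC-MS/MS with channel sums equalised. Thermal stability values, relative to control samples and from duplicates, are log2 fold changes.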

By UniProt entry, the sequences of proteins in these tests, tags left out. Where a name states a change or a piece, a line headed by the entry shows the natural chain unless it says otherwise.
UniProt Q86SR1: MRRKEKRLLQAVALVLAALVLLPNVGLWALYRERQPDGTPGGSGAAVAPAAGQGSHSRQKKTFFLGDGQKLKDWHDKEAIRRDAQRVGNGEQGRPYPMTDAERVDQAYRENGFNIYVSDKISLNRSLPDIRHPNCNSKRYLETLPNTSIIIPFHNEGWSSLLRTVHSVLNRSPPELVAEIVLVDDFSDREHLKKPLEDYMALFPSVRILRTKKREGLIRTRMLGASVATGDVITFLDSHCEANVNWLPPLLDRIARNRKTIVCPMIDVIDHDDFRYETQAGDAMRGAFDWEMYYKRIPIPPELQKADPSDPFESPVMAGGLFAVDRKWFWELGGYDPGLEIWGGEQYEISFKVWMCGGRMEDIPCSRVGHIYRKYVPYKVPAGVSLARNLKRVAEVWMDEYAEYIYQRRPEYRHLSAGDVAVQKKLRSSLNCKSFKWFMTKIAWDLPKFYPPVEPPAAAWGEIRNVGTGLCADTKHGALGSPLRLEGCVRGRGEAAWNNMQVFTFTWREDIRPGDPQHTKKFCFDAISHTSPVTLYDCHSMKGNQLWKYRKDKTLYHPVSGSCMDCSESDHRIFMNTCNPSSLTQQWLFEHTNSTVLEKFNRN
UniProt Q8IVV7: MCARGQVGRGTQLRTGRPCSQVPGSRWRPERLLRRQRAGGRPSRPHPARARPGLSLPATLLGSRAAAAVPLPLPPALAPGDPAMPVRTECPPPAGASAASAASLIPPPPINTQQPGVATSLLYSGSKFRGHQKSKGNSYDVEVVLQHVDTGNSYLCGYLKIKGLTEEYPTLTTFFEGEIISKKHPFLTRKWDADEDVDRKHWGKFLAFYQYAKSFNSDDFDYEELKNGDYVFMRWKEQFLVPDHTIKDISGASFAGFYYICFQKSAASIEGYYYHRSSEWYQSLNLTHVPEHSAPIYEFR
UniProt Q14393: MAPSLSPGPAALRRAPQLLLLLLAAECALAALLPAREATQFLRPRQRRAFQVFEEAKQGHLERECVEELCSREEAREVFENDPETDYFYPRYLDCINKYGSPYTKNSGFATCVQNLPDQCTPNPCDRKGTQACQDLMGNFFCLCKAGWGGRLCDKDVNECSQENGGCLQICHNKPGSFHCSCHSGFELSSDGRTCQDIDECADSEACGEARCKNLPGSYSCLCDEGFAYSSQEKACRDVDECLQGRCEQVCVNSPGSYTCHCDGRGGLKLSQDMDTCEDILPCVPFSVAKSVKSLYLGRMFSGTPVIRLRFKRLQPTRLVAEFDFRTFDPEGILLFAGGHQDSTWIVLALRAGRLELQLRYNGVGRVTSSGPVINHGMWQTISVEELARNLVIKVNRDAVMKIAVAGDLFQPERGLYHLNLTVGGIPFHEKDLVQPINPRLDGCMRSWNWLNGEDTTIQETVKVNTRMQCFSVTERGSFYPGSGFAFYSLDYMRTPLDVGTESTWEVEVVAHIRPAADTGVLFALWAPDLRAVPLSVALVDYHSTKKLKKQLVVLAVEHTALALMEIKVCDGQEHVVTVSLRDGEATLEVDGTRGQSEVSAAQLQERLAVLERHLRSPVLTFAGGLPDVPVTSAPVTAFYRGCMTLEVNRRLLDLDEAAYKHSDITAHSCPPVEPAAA
UniProt Q06547, whole entry, looked up: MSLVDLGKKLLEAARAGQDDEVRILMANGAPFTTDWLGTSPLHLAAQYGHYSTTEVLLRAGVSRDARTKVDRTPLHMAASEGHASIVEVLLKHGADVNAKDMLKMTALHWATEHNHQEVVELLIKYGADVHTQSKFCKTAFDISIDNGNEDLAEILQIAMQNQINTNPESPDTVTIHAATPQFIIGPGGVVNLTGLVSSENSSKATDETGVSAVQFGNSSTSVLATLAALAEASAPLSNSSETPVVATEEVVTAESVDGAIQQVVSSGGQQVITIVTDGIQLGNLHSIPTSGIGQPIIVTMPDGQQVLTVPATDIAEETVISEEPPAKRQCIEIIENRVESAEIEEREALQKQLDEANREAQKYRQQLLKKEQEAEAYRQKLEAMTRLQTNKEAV
UniProt A2VDF0: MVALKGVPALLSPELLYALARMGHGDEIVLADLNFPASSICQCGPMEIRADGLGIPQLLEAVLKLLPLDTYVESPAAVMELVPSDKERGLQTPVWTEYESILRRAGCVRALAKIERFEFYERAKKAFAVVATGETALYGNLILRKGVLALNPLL
UniProt Q13467, whole entry, looked up: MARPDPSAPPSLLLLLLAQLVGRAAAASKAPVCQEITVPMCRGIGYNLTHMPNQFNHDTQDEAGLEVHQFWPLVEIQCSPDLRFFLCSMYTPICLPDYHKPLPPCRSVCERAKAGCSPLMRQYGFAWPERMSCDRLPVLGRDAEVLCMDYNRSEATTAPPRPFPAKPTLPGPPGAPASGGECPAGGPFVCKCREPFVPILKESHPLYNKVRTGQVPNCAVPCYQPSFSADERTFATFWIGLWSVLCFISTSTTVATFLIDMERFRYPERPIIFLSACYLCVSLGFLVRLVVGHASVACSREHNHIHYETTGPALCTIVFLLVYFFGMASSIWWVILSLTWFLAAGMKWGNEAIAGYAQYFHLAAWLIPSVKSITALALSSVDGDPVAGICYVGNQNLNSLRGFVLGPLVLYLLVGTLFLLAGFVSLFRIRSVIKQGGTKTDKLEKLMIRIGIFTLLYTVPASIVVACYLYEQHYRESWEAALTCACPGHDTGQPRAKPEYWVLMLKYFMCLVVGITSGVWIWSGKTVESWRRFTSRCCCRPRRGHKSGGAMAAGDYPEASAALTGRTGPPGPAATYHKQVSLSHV
UniProt Q9BYC5: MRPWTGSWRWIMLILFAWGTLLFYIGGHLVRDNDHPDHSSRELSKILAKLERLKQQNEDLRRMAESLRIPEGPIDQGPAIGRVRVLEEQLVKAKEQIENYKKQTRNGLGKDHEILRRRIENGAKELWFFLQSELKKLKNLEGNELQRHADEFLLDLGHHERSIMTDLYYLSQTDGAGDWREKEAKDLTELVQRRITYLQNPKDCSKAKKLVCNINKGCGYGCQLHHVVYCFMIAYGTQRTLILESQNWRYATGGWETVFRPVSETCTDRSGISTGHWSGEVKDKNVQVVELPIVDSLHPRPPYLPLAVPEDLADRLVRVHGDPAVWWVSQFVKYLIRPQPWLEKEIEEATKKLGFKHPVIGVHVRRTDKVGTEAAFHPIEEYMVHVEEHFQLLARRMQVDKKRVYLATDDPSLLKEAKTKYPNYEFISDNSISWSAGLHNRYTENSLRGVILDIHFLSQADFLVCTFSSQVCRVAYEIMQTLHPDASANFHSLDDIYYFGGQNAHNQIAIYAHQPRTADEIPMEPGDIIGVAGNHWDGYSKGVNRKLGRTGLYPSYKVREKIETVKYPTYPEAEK
UniProt Q8IY81: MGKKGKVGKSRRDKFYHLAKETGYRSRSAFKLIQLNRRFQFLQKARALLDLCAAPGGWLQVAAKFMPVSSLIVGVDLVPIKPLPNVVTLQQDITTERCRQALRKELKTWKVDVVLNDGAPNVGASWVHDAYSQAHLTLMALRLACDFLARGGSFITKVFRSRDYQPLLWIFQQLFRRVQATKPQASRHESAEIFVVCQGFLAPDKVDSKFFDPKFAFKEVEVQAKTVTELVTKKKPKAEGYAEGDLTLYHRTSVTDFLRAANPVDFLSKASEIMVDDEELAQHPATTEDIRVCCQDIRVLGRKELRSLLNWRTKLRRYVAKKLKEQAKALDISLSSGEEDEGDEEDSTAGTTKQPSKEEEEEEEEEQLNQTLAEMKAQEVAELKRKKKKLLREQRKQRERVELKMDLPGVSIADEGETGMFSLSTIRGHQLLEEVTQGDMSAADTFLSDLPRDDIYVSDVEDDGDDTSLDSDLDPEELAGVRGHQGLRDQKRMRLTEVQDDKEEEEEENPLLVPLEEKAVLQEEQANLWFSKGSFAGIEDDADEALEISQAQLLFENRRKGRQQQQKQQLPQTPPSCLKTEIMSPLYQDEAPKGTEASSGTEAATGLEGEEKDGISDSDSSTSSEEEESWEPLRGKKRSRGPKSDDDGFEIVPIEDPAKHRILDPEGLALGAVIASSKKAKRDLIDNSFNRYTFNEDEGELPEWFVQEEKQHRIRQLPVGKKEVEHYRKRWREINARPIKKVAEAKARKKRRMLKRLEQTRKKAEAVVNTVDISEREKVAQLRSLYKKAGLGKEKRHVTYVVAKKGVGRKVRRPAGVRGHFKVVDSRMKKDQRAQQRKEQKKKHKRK
UniProt Q70Z53: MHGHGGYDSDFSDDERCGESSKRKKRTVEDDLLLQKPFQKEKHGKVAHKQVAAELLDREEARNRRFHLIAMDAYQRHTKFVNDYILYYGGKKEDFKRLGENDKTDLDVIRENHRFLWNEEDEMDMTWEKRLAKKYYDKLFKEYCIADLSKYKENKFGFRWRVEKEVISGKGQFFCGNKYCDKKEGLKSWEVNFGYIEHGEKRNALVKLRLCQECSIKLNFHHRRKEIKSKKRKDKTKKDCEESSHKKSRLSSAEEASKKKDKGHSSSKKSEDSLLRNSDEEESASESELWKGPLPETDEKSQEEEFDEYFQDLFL

Compound in another test: C[C@@H](Oc1cc(-c2cnn(C3CCNCC3)c2)cnc1N)c1c(Cl)ccc(F)c1Cl [crizotinib]
In outline: as §1

Compound in test [2]: C[C@@H]1COCCN1C2=NC(=NC(=C2)C3(CC3)S(=O)(=O)C)C4=C5C=CNC5=CC=C4
In outline:
as §1

Compound in test [3]: C[C@H](C1=CC=C(C=C1)C(=O)NC2=C3C=CNC3=NC=C2)N
In outline:
as §1

Compound in another test: C[C@H](Nc1ncnc2nc[nH]c12)c1cc2cccc(Cl)c2c(=O)n1-c1ccccc1 [duvelisib]
In outline:
as §1

Compound in the next test: Cc1cc(Nc2cc(CN3CCOCC3)c3nc(C)c(Cc4ccc(Cl)cc4F)n3n2)n[nH]1 [gandotinib]
In outline:
as §1

Compound in test [4]: Cc1cc(SCc2sc(-c3ccc(C(F)(F)F)cc3)nc2C)ccc1OCC(=O)O
In outline: as §1

Compound in another test: Cc1ccc(-n2nc(C(C)(C)C)cc2NC(=O)Nc2ccc(OCCN3CCOCC3)c3ccccc23)cc1 [doramapimod]
In outline:
as §1

Compound in a further test: Cc1ccc(NC(=O)c2ccc(CN3CC[C@H](N(C)C)C3)c(C(F)(F)F)c2)cc1Nc1nccc(-c2cncnc2)n1 [bafetinib]
In outline: as §1

Compound in test [5]: Cc1cccc(CC(=O)N2CCc3c2ccc(-c2cn(C)c4ncnc(N)c24)c3F)n1
In outline:
as §1

Compound in the next test: Cc1cn(-c2cc(NC(=O)c3ccc(C)c(Nc4nccc(-c5cccnc5)n4)c3)cc(C(F)(F)F)c2)cn1 [nilotinib]
In outline: as §1

Compound in test [6]: Cc1nc(Nc2n[nH]c3c2CN(C(=O)N[C@H](CN(C)C)c2ccccc2)C3(C)C)c2sccc2n1
In outline:
as §1

Compound in the next test: Cc1nc(Nc2ncc(C(=O)Nc3c(C)cccc3Cl)s2)cc(N2CCN(CCO)CC2)n1 [dasatinib]
In outline:
as §1

Compound in test [7]: Cc1ncc(-c2ccnc(Nc3ccc(S(C)(=O)=O)cc3)n2)n1C(C)C
In outline: as §1

Compound in test [8]: Cn1cc(-c2ccc3c(c2)CCN3C(=O)Cc2cccc(C(F)(F)F)c2)c2c(N)ncnc21
In outline:
as §1

Compound in a further test: Cn1cncc1[C@@](N)(c1ccc(Cl)cc1)c1ccc2c(c1)c(-c1cccc(Cl)c1)cc(=O)n2C [tipifarnib]
In outline:
as §1

Compound in another test: FC(F)(F)c1ccc(/C=C/c2nc(COc3ccc(CCCCn4ccnn4)cc3)co2)cc1 [mubritinib]
In outline: as §1

Compound in another test: Cc1ccc(C(=O)N(CCCN)[C@@H](c2nc3cc(Cl)ccc3c(=O)n2Cc2ccccc2)C(C)C)cc1 [ispinesib]
In outline:
as §1

Compound in test [9]: Cn1cc(-c2ccc3nnc(C(F)(F)c4ccc5ncccc5c4)n3n2)cn1
In outline:
as §1

Compound in the next test: Cc1cc(Nc2cc(N3CCN(C)CC3)nc(Sc3ccc(NC(=O)C4CC4)cc3)n2)n[nH]1 [tozasertib]
In outline: as §1

This is one part of the list.

For the target GALNT10 (UniProt Q86SR1), the log2 fold change in [1] was inactive: 0.023; with crizotinib, inactive: 0.065; in test [2] it was inactive: 0.057; in [3] it was inactive: -0.137; with duvelisib, inactive: -0.094; in the test with gandotinib it was inactive: 0.124. Further, the log2 fold change in test [4] is inactive: -0.057; with doramapimod, inactive: 0.054; with bafetinib it was inactive: -0.124; in test [5], inactive: -0.041; in the test with nilotinib, inactive: -0.075; in test [6], inactive: -0.033. The log2 fold change is inactive: -0.013 with dasatinib; inactive: 0.155 in [7]; inactive: -0.117 in [8]; inactive: 0.089 with tipifarnib; inactive: 0.048 with mubritinib.

For the target GID4 (UniProt Q8IVV7), the log2 fold change was inactive: 0 in test [1]; inactive: 0.054 in [2]; inactive: -0.006 in test [3]; inactive: 0.034 in the test with gandotinib; inactive: 0.032 in test [4]; inactive: 0.044 with ispinesib. Besides, the log2 fold change in the test with bafetinib is inactive: -0.059; in test [5] it was inactive: -0.058; with nilotinib, inactive: -0.051; in test [6] it was inactive: 0.003; in the test with dasatinib, inactive: -0.086; in [7], inactive: 0.038. Besides, the log2 fold change in test [8] was inactive: -0.042; in test [9], inactive: -0.032; in the test with tipifarnib it was inactive: 0.116; with mubritinib, inactive: -0.029.

Take GAS6 isoform 1 (UniProt Q14393): the log2 fold change was inactive: -0.032 in [1], inactive: 0.01 in [2], inactive: -0.095 in the test with gandotinib and inactive: -0.154 in test [5].

With GABPB1 (UniProt Q06547), the log2 fold change in test [1] is inactive: 0.141; with crizotinib it was inactive: -0.052; with tozasertib, inactive: 0.111; with doramapimod, inactive: 0.051; with ispinesib, inactive: -0.246; with bafetinib, inactive: -0.058. The log2 fold change in test [9] was inactive: 0.031; with tipifarnib, inactive: -0.016.

On to FUOM (UniProt A2VDF0), for which the log2 fold change is inactive: 0.053 in test [1]; inactive: 0.023 with crizotinib; inactive: 0.146 in test [3]; inactive: -0.033 with tozasertib; inactive: 0.027 in the test with doramapimod; inactive: -0.058 in the test with bafetinib. Also, the log2 fold change with nilotinib was inactive: 0.064; in [6] it was inactive: 0.004; in test [7], inactive: -0.203; in test [8] it was inactive: 0.29; in the test with mubritinib, inactive: 0.201.

FZD5 (UniProt Q13467): the log2 fold change in test [1] was inactive: 0.098; in test [2], inactive: -0.069; with tozasertib it was inactive: -0.205; with bafetinib, inactive: -0.186; in the test with tipifarnib, inactive: 0.015; in the test with mubritinib, inactive: -0.113.

On to FUT8 (UniProt Q9BYC5), for which the log2 fold change was inactive: 0.018 in test [1]; inactive: -0.235 in the test with crizotinib; inactive: 0.077 in test [2]; inactive: -0.011 in test [3]; inactive: 0.034 with gandotinib; inactive: 0.178 in [4]. The log2 fold change with doramapimod was inactive: -0.017; in the test with ispinesib, inactive: -0.148; in the test with bafetinib, inactive: -0.062; in [5], inactive: -0.042; with nilotinib, inactive: -0.008; in [6], inactive: 0.006. Besides, the log2 fold change with dasatinib was inactive: 0.031; in test [7] it was inactive: 0.054; in test [8], inactive: -0.276; in test [9], inactive: 0.022; with mubritinib, inactive: -0.037.

FTSJ3 (UniProt Q8IY81): the log2 fold change in test [1] is inactive: -0.008; in test [3] it was inactive: 0.389; with duvelisib it was inactive: 0.02; in the test with gandotinib, inactive: 0.091; in test [4], inactive: 0.154; in the test with ispinesib, inactive: -0.184. For the same target, the log2 fold change is inactive: 0.073 in test [5]; inactive: 0.388 with dasatinib; inactive: -0.308 in test [8]; inactive: 0.029 in [9]; inactive: 0.298 in the test with tipifarnib.

For the target FRA10AC1 isoform 3 (UniProt Q70Z53), the log2 fold change in test [1] was inactive: -0.082; with crizotinib, inactive: 0.201; in test [2] it was inactive: 0.059; in test [3] it was inactive: 0.029; with gandotinib, inactive: 0.189; in [4] it was inactive: -0.116. Besides, the log2 fold change with doramapimod is inactive: -0.044; in the test with bafetinib, inactive: -0.087; in [5], inactive: 0.018; with nilotinib it was inactive: -0.034; in [6], inactive: -0.039; with dasatinib, inactive: -0.051. The log2 fold change was inactive: 0.085 in test [7], inactive: -0.076 in [8], inactive: -0.055 with tipifarnib and inactive: 0.011 with mubritinib.

Take FNTB (UniProt P49356): the log2 fold change is inactive: 0.104 in test [1]; inactive: 0.054 in the test with crizotinib; inactive: -0.035 in test [2]; inactive: -0.137 in test [3]; inactive: 0.169 in the test with gandotinib; inactive: -0.043 in test [4]. Also, the log2 fold change in the test with doramapimod is inactive: -0.012; with ispinesib, inactive: 0.109; in the test with bafetinib, inactive: 0.028; in test [5], inactive: 0.015; in the test with nilotinib it was inactive: 0.028; in [6] it was inactive: 0.177. In addition, the log2 fold change with dasatinib is inactive: 0.22; in [7], inactive: -0.056; in [8] it was inactive: 0.196; in [9], inactive: 0.251; with tipifarnib, active: 0.757; in the test with mubritinib, inactive: -0.103.

Source of the values: the supplement of paper PMC10849652.
